# Laboratory results from PubChem BioAssay AID1347076 (National Center for Advancing Translational Sciences (NCATS), 2019).
# About 13,000 (3.2%) of roughly 400,000 compounds were called active. This list was built around the results that the source calls inconclusive (neither active nor inactive); the mix of calls is not that of the screen. Calls follow the shape of the dose curve; as a rule, active = well fitted cell-killing curve with a large enough effect; inconclusive = small, poorly fitted or top-dose-only effect, or effect the other way; inactive = flat fitted curve, though single readings scatter. Potencies of inconclusive entries are doubtful fits and often do not repeat.
# Assay: qHTS assay for MDR1-selective chemotherapeutics: Primary screen using the drug-selected MDR subline cells KB-V1; also: nearly all actives have a fitted effect of over 60% in size
# Conditions: KB-V1 MDR cells viability, CellTiter-Glo, 72 h
# Summary of the method: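 KB-V1 MDR subline cells in DMEM (phenol-red free, 10% FBS) exposed to compounds in qHTS concentration series for 72 h at 37 degrees C. Viability read by CellTiter-Glo luminescence; concentration-effect curves fitted after normalization and correction.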
# [1] = activity change, negative = cytotoxicity: at 46.1 µM (top of the series)
# % is scaled to controls: 0 for no effect and ±100 for the full control effect; potency is read from the fitted curve at half-maximal effect.
smiles,measurement,setting,value
CCN(CC)S(=O)(=O)c1ccc(O)c(NC(=O)COc2ccc(S(=O)(=O)N3CCOCC3)cc2)c1,Potency,[1],inactive
O=C(Nc1nnc(SCc2ccc(F)cc2)s1)C1CC(=O)N(Cc2ccccc2)C1 (stereo not drawn),Potency,[1],active: 20.6 µM
N#CC(c1cccc([N+](=O)[O-])c1)C(CC(=O)c1ccccc1)c1ccccc1 (stereo not drawn),Potency,[1],"inconclusive: 13 µM [cytotoxic, partial curve]"
Cn1c(SCC(=O)Nc2ccccc2-c2ccccc2)nnc1-c1ccco1,Potency,[1],active: 18.4 µM
COc1ccc(C=C2C=C(C(C)(C)C)C(=O)C(C(C)(C)C)=C2)cc1OC,Potency,[1],"inconclusive: 29.1 µM [cytotoxic, single point]"
C=CCn1c(SCC(=O)N2CCN(c3ccccc3)CC2)nnc1-c1ccco1,Potency,[1],active: 13 µM
O=C(NCCc1cccs1)c1ccc(CS(=O)Cc2cccc(Cl)c2)o1 (stereo not drawn),Potency,[1],"inconclusive: 16.4 µM [cytotoxic, single point]"
CC1(C)CC(=O)C=C(c2n[nH]nc2-c2ccccc2)C1,Potency,[1],inactive
O=C(NCCCN1CCOCC1)/C(=C/c1ccco1)NC(=O)c1ccccc1,Potency,[1],"inconclusive: 10.3 µM [rising, partial curve, poor fit]"
O=C(N/N=C/c1ccc(-c2ccc([N+](=O)[O-])cc2)o1)C(O)c1ccccc1 (stereo not drawn),Potency,[1],inactive
Cc1ccc(C(=O)N2CCC(C(=O)c3ccc(F)cc3)CC2)cc1,Potency,[1],"inconclusive: 8.2 µM [cytotoxic, partial curve, poor fit]"
CC1Cc2ccccc2N1C(=O)CSc1nnnn1Cc1ccccc1 (stereo not drawn),Potency,[1],"inconclusive: 20.6 µM [cytotoxic, partial curve]"
COCCNc1nc(NCc2ccccc2)c2cnn(C)c2n1,Potency,[1],inactive
CC(=O)c1ccc(NC(=O)c2cn(C)c(=O)c3ccccc23)cc1,"activity change, negative = cytotoxicity",[1],inconclusive: -23%
same,"activity change, negative = cytotoxicity",at 46.1 µM (top of the series),inactive: -5.2%
O=C(C1COc2cc(S(=O)(=O)Nc3ccc(Cl)cc3)ccc2O1)N1CCCC1 (stereo not drawn),Potency,[1],inactive
Cc1ccc2sc(N(CCCN(C)C)C(=O)CCS(=O)(=O)c3ccccc3)nc2c1C,Potency,[1],inactive
CC(NC(=O)CCC(=O)NC(C)C1COc2ccccc2O1)C1COc2ccccc2O1 (stereo not drawn),Potency,[1],"inconclusive: 16.4 µM [cytotoxic, partial curve]"
COc1ccc(C(=O)c2cn(Cc3ccc(F)cc3)c3c(F)cc(F)cc3c2=O)cc1,Potency,[1],inactive
CCC(c1nnnn1Cc1ccc(F)cc1)N(CCCO)Cc1cc2cc3c(cc2[nH]c1=O)OCO3 (stereo not drawn),Potency,[1],"inconclusive: 13 µM [rising, partial curve]"
Cc1cc(=O)nc2c3ccccc3n(C(C)C(=O)Nc3c(F)c(F)c(F)c(F)c3F)n12 (stereo not drawn),Potency,[1],"inconclusive: 2.91 µM [cytotoxic, full curve]"
O=C(N/N=C\c1ccc(Cl)cc1)c1sccc1-n1cccc1,Potency,[1],"inconclusive: 29.1 µM [cytotoxic, partial curve, poor fit]"
COc1cccc(-c2nnc3sc(-c4ccco4)nn23)c1,Potency,[1],inactive
Cc1ccccc1NC(=S)N(C)Cc1cn(C)c2ccccc12,Potency,[1],active: 18.4 µM
COc1ccc(-c2csc3ncnc(N4CCN(CCO)CC4)c23)cc1,Potency,[1],inactive
CCn1c(C2CC(=O)N(c3ccc(C)c(C)c3)C2)nc2ccccc21 (stereo not drawn),Potency,[1],inactive
CN1CCN(CCCNC(=O)c2ccc3c(Cl)c4c(nc3c2)CCCC4)CC1,Potency,[1],inactive
CCc1ccc(Nc2n[n+](-c3ccccc3)c(-c3cccc(C)c3)s2)cc1,Potency,[1],"inconclusive: 0.651 µM [rising, partial curve]"
Cc1sc(NC(=S)NC(=O)CCc2ccccc2)c(C(N)=O)c1C,Potency,[1],"inconclusive: 0.0046 µM [cytotoxic, full curve, poor fit]"
CCCN(CCC)c1ccc(C(O)c2nnc(-c3ccccc3)o2)cc1 (stereo not drawn),Potency,[1],"inconclusive: 23.1 µM [rising, single point]"
O=C(Cc1cccc(NC(=O)C2CCCN(C(=O)CCc3ccccc3)C2)c1)Nc1cccc(C(=O)N2CCCCC2)c1 (stereo not drawn),Potency,[1],inactive
Cc1ccccc1NC(=O)c1cc(N)ccc1N1CCCCC1,Potency,[1],active: 14.6 µM
COc1ccccc1N1CCN(C(=O)CSc2nc(C)c(Cc3ccccc3)c(=O)[nH]2)CC1,Potency,[1],"inconclusive: 29.1 µM [cytotoxic, single point]"
Cc1ccc(/C=N\NC(=O)c2cc([N+](=O)[O-])cc([N+](=O)[O-])c2)o1,Potency,[1],"inconclusive: 16.4 µM [rising, partial curve, poor fit]"
COc1ccc(C(C(=O)NC2CCCCC2)n2c(=O)c(-c3ccco3)nc3ccccc32)cc1 (stereo not drawn),Potency,[1],"inconclusive: 14.6 µM [cytotoxic, partial curve]"
COc1ccc(NC(=O)c2sc(=O)n(Cc3ccc4ccccc4c3)c2C)cc1OC,Potency,[1],"inconclusive: 9.2 µM [cytotoxic, partial curve]"
COc1cc(C2C(C(=O)Nc3ccccc3)=C(C)Nc3nc(SCC(=O)c4ccc(C)cc4)nn32)ccc1O (stereo not drawn),Potency,[1],"inconclusive: 29.1 µM [rising, single point]"
O=C1OC(COc2ccc(Br)cc2)CN1c1ccccc1 (stereo not drawn),Potency,[1],inactive
COc1ccc(/C=C/C(=O)C2(O)CCCCC2)cc1OC,Potency,[1],"inconclusive: 18.4 µM [cytotoxic, single point]"
Cc1ccc(NC(=O)C2CCN(S(=O)(=O)c3c(C)noc3/C=C/c3ccco3)CC2)nc1,Potency,[1],"inconclusive: 5.8 µM [cytotoxic, full curve]"
Cc1ccc(CN2CCN(C(=O)/C=C/[C@H]3O[C@@H](n4cc(C)c(=O)[nH]c4=O)C[C@@H]3O)CC2)cc1,Potency,[1],inactive
Cc1ccc(Cn2c(C)c(CNCc3ccccc3F)c(C(=O)O)c2C)cc1,Potency,[1],"inconclusive: 25.9 µM [rising, single point]"
COC(=O)c1cccc(S(=O)(=O)N2CCOCC2)c1,Potency,[1],"inconclusive: 0.58 µM [rising, full curve, poor fit]"
O=c1oc2cc(Oc3ccc(C(F)(F)F)cc3[N+](=O)[O-])ccc2c2c1CCC2,Potency,[1],active: 20.6 µM
COCCNC(=O)c1cc2c(c(-c3cccc(-c4cc5ccccc5o4)c3)n1)[C@H](CCO)N(S(=O)C(C)(C)C)C2 (stereo partly drawn),Potency,[1],active: 18.4 µM
Cc1cc2ncc(-c3ncc(C(F)(F)F)cc3Cl)cn2n1,Potency,[1],inactive
Cc1ccc(NC(=O)CSc2nc3ccc(NC(=O)c4cccc(Cl)c4)cc3s2)c(C)c1,Potency,[1],inactive
CN1CCC(C2(O)c3ccccc3CSc3sccc32)CC1 (stereo not drawn),Potency,[1],inactive
CCOC(=O)c1ccc(S(=O)(=O)NNc2ccc(C(F)(F)F)cn2)cc1,Potency,[1],"inconclusive: 9.2 µM [rising, partial curve, poor fit]"
Cc1nc2c3cc(Cl)ccc3n(CCN3CCOCC3)c2s1,Potency,[1],"inconclusive: 29.1 µM [cytotoxic, single point]"
CC(C)c1ccc(S(=O)(=O)Nc2cc3c(cc2NCc2ccccc2)n(C)c(=O)n3C)cc1,Potency,[1],"inconclusive: 7.31 µM [cytotoxic, partial curve]"
O=C(O)CSc1nnc(-c2ccc(Cl)cc2Cl)n1-c1ccccc1,Potency,[1],"inconclusive: 29.1 µM [rising, single point]"
Cc1cnc(NC(=O)CCCNC(=O)c2ccc(Cl)cc2)s1,Potency,[1],"inconclusive: 10.3 µM [cytotoxic, single point]"
CCc1nn(CC(=O)NCCc2ccc(Cl)cc2)c(=O)c2cccn12,Potency,[1],"inconclusive: 0.82 µM [cytotoxic, full curve, poor fit]"
CCCN(Cc1ccco1)S(=O)(=O)c1ccc(OC)c(OC)c1,Potency,[1],"inconclusive: 9.2 µM [cytotoxic, partial curve]"
COc1ccccc1NS(=O)(=O)c1ccc2oc(SC)nc2c1,Potency,[1],"inconclusive: 29.1 µM [cytotoxic, single point]"
Cc1ccc(S(=O)(=O)N2CCOCC2)cc1C(=O)O,Potency,[1],inactive
COCCN(C(=O)COC(=O)c1c(NC(C)=O)sc(C)c1C)c1c(N)n(Cc2ccccc2)c(=O)[nH]c1=O,Potency,[1],"inconclusive: 29.1 µM [cytotoxic, single point]"
O=C(O)c1cccc(NC(=O)c2cccc(NC(=O)C3CCCO3)c2)c1 (stereo not drawn),Potency,[1],inactive
COCCCNC(=S)N1CCN(c2nc(C)nc3sc4c(c23)CCCC4)CC1,Potency,[1],"inconclusive: 29.1 µM [cytotoxic, partial curve, poor fit]"
CCCCN(C(=O)CSc1cc(C)c2ccccc2n1)c1c(N)n(Cc2ccccc2)c(=O)[nH]c1=O,Potency,[1],inactive
Oc1ccc(/C=N/Nc2nc(-c3cccnc3)nc3ccccc23)c(O)c1,Potency,[1],inactive
Cc1c(Cl)cccc1N1C(=O)CC(NNC(=O)c2ccc3c(c2)OCO3)C1=O (stereo not drawn),Potency,[1],inactive
Cc1ccc(C)c2[nH]c(=O)c(C(c3nnnn3C3CCCC3)N3CCOCC3)cc12 (stereo not drawn),Potency,[1],"inconclusive: 8.2 µM [cytotoxic, partial curve]"
O=C(CN1C(=O)COc2ccc(S(=O)(=O)N3CCCCCC3)cc21)N1CCN(c2cccc(Cl)c2)CC1,Potency,[1],"inconclusive: 7.31 µM [cytotoxic, partial curve]"
CC(C)(C)c1cnnn1-c1ccc(C(=O)CCl)cc1,Potency,[1],active: 23.1 µM
O=C(CSc1nc2scc(-c3cccs3)c2c(=O)n1CCc1ccccc1)N1CCCC1,Potency,[1],inactive
Cc1ccc(N(Cc2ccccc2)C(=O)c2cc(S(=O)(=O)N3CCOCC3)ccc2F)cc1,Potency,[1],active: 9.2 µM
COCCNC(=O)C1(C)CCCN(C(=O)c2ccc(C#N)cc2)C1 (stereo not drawn),Potency,[1],inactive
COC(=O)C1C(=O)c2c(C)noc2CC1(C)C (stereo not drawn),Potency,[1],"inconclusive: 0.92 µM [rising, full curve]"
COc1ccc(NC(=O)c2ccc(C(=O)Nc3ccc(OC)cc3OC)cc2)c(OC)c1,Potency,[1],inactive
Cc1c2n(c3ccccc13)CC/C2=N\O,Potency,[1],active: 5.17 µM
CCCCNC(=O)C1(C)CCN1C(=O)c1ccc(OC)c(C(F)(F)F)c1 (stereo not drawn),Potency,[1],inactive

# 5 entries drawn at random from those above, as already listed:
smiles,measurement,setting,value
Cc1ccc(C)c2[nH]c(=O)c(C(c3nnnn3C3CCCC3)N3CCOCC3)cc12 (stereo not drawn),Potency,[1],"inconclusive: 8.2 µM [cytotoxic, partial curve]"
Cc1c(Cl)cccc1N1C(=O)CC(NNC(=O)c2ccc3c(c2)OCO3)C1=O (stereo not drawn),Potency,[1],inactive
CC(=O)c1ccc(NC(=O)c2cn(C)c(=O)c3ccccc23)cc1,"activity change, negative = cytotoxicity",at 46.1 µM (top of the series),inactive: -5.2%
COC(=O)C1C(=O)c2c(C)noc2CC1(C)C (stereo not drawn),Potency,[1],"inconclusive: 0.92 µM [rising, full curve]"
Cc1ccc(/C=N\NC(=O)c2cc([N+](=O)[O-])cc([N+](=O)[O-])c2)o1,Potency,[1],"inconclusive: 16.4 µM [rising, partial curve, poor fit]"
